{
  "sequences": {"note": "Protein sequences, listed by entry. Tags and fused reporters are not part of them.", "UniProt P0DTC3": "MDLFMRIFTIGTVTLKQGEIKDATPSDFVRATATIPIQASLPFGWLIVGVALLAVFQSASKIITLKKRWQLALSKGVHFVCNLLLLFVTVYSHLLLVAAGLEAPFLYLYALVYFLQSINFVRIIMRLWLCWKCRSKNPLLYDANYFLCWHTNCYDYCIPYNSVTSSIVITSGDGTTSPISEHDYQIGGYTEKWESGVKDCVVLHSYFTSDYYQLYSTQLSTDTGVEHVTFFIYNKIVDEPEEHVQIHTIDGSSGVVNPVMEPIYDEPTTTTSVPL", "UniProt Q86WV6": "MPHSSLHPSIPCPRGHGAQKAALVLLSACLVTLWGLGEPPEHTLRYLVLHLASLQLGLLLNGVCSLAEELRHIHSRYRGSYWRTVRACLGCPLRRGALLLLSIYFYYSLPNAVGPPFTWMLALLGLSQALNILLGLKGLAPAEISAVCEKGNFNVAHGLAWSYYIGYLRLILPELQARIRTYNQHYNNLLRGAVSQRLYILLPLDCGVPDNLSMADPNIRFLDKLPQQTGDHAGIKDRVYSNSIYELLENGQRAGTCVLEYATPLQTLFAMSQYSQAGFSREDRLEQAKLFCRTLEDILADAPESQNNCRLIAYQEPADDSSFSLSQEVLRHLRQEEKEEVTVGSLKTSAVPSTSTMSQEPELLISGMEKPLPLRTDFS"},
  "source": "paper PMC7958565",
  "molecular_target": "SARS-CoV-2 ORF3a with a C-terminal HA tag (SARS-CoV-2) (UniProt P0DTC3)",
  "assay": "co-IP",
  "note": "Results are given in words; binding and its absence hold for the method and conditions named. In cells and extracts the contact can be indirect. Some results given as binding are weak or reduced against the parent protein; the word gives no strength.",
  "data": [
    {"substance": "full-length (wild-type) STING detected by anti-GFP (from UniProt Q86WV6 1-379)", "values": [
      {"measurement": "binding", "value": "binds"}
    ]}
  ]
}
